In the supplement of paper PMC10735217:
Counter-ions that a name gives are not always drawn. The list shows a part of the results. Single values are uncertain here, since repeats match poorly.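 In a drug-repurposing library screen, luminescence reads luciferase driven by eight TEAD-binding elements, stably integrated into human kidney-derived cells. Compounds scoring over five robust Z scores above the plate mean are called hits.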

Test system: HEK293A TEAD-LUC reporter
Test: TEAD-luciferase reporter activity (YAP activation), robust Z score vs plate; higher = stronger YAP/TEAD activation
Conditions: 24 h

| Compound | TEAD-luciferase reporter activity (compound concentration: 200 nM) | TEAD-luciferase reporter activity (compound concentration: 2 uM) | TEAD-luciferase reporter activity (compound concentration: 10 uM) |
| --- | --- | --- | --- |
| CCc1cc(-c2noc(-c3cc(OC)nc(C4CCCC4)c3)n2)cc(C)c1OC[C@@H](O)CO | inactive: -0.893 | inactive: -0.279 | inactive: 0.435 |
| O=C(c1ccc(Cl)cc1)N1CCC(=Cc2ccc(C3=NCCO3)cc2)CC1 | inactive: -3.82 | inactive: -1.15 | inactive: 1.86 |
| N=C(N)NC(=O)c1ccc(N2CCN(C(=O)c3ccc[nH]3)CC2)c(C(F)(F)F)c1 [Sabiporide mesilate] | inactive: -1.07 | inactive: -1.38 | inactive: -0.342 |
| C[C@](N)(CO)c1ncc(-c2ccc(OCc3ccc(-c4ccccc4)cc3)c(C(F)(F)F)c2)[nH]1 | inactive: -1.57 | inactive: 0.0368 | inactive: -0.547 |
| O=P1(O)OP(=O)(O)O[C@H]2[C@H](O1)[C@@H]1OP(=O)(O)OP(=O)(O)O[C@@H]1[C@H]1OP(=O)(O)OP(=O)(O)O[C@H]21 | inactive: 0.211 | inactive: -2.21 | inactive: 0.576 |
| CC1(C)CN(c2ncc(C(=O)Nc3cccc(C(F)(F)F)c3)c(N)n2)C(=O)N1 [Imanixil] | inactive: -0.762 | inactive: -0.528 | inactive: 0.147 |
| O=C([C@@H]1CSCN1C(=O)CC1Cc2ccccc2C1)N1CCCC1 | inactive: -0.943 | inactive: -1.48 | active: 5.49 |
| CC(C)(C)c1cc(CC2SCNC2=O)cc(C(C)(C)C)c1O (stereo unspecified) [Tazofelone] | inactive: -0.655 | inactive: -0.785 | inactive: -0.666 |
| COc1cc(NC(C)=O)ccc1OCCCN1CCN(c2ccccc2F)CC1 [Mafoprazine mesylate] | inactive: -0.697 | inactive: -1.03 | inactive: -1.77 |
| CC1=C(/C=C/C(C)=C/C=C/C(C)=C/C=O)C(C)(C)CCC1 [Retinaldehyde] | inactive: -0.49 | inactive: -0.55 | inactive: -0.916 |
| O=C([O-])[C@H]1/C(=C/CO)O[C@@H]2CC(=O)N21 [clavulanic acid, Rexahn] | inactive: -1.03 |  | inactive: 2.84 |
| CCS(=O)(=O)Nc1ncc(C(F)(F)F)cc1NC(=O)C1CCCCC1 | inactive: -2.3 | inactive: -1.22 | inactive: -0.113 |
| O=C(Nc1ccc(S(=O)(=O)N2CCOCC2)cc1)c1cc(Cl)ccc1NS(=O)(=O)c1ccc(Cl)s1 [ataciguat] | inactive: -2.53 | inactive: -0.22 | inactive: 1.97 |
| O=C(NC(=O)c1ccccc1)NC1CCN(Cc2ccc3ccccc3c2)CC1 | inactive: 0.278 | inactive: 0.843 | inactive: -1.49 |
| CCN(CC)CCN(CC)CC(=O)Nc1ccccc1Cl | inactive: 0.0162 | inactive: -1.78 | inactive: -0.115 |
| CCCOC(=O)c1ccc(N)cc1 [propyl 4-aminobenzoate] | inactive: -1.04 | inactive: 2.3 | inactive: 1.56 |
| CC[C@H]1OC(=O)[C@H](C)[C@@H](O[C@H]2C[C@@](C)(OC)[C@@H](O)[C@H](C)O2)[C@H](C)[C@@H](O[C@@H]2O[C@H](C)C[C@H](N(C)C)[C@H]2O)[C@](C)(O)C[C@](C)(F)C(=O)[C@H](C)[C@@H](O)[C@]1(C)O [Flurithromycin] | inactive: 0.183 | inactive: 3.94 | inactive: -0.615 |
| CCCc1cc(Cl)c2oc(Cc3ccc(OC)cc3)c(C)c2c1O | inactive: -0.778 | inactive: -0.698 | inactive: -0.578 |
| CN[C@@H]1CC[C@H](c2ccc(Cl)c(Cl)c2)c2ccccc21 [sertraline hydrochloride] | inactive: -1.37 | inactive: -1.03 | inactive: -1.32 |
| CS(=O)(=O)CC[C@H](N)C(=O)N[C@@H](CCC(=O)O)C(=O)N[C@@H](Cc1cnc[nH]1)C(=O)N[C@@H](Cc1ccccc1)C(=O)N[C@H](CCCCN)C(=O)N[C@@H](Cc1ccccc1)C(=O)O | inactive: -1.31 | inactive: -0.244 | inactive: -1.72 |
| CN1CCN(CCCN2c3ccccc3Sc3ccc(C(F)(F)F)cc32)CC1 [Trifluoperazine hydrochloride] |  | inactive: -0.305 |  |
| CN1CCN(CCCN2c3ccccc3Sc3ccc(C(F)(F)F)cc32)CC1 | inactive: 1.14 |  | inactive: 3.32 |
| O=C(Nc1ccc(O)cc1)c1ccccc1O [N-Salicoylaminophenol] | inactive: 1.11 | inactive: 1.51 | inactive: -0.162 |
| Oc1ccc(C(O)CNCCCCCCNCC(O)c2ccc(O)c(O)c2)cc1O (stereo unspecified) [hexoprenaline] | inactive: -0.224 | inactive: 2.42 | inactive: -0.551 |
| CC(C)(CCCCCC(O)CCCCCC(C)(C)C(=O)O)C(=O)O [Bempedoic acid] | inactive: 0.822 | inactive: 0.845 | inactive: -1.35 |

Taken from above.
N=C(N)NC(=O)c1ccc(N2CCN(C(=O)c3ccc[nH]3)CC2)c(C(F)(F)F)c1 [Sabiporide mesilate] | TEAD-luciferase reporter activity (compound concentration: 2 uM): inactive: -1.38
CCS(=O)(=O)Nc1ncc(C(F)(F)F)cc1NC(=O)C1CCCCC1 | TEAD-luciferase reporter activity (compound concentration: 200 nM): inactive: -2.3
